Test results taken from patent US8877763B2, “Substituted pyridopyrimidine compounds and their use as FLT3 inhibitors” (Genosco, priority 2012, dated 2014).

Test system: MV4-11 cells expressing human FLT3-ITD
Test: Cell viability assay: inhibition of FLT3-ITD-positive cells (ATPLite)
Type: cell-based
Settings: MV4-11, 72 h, 72 hour incubation
Procedure: Compounds of the invention were tested for cell viability effect on MV4-11 cells. For cell viability assay, MV4-11 cells expressing human FLT3-ITD were obtained from the American Type Culture Collection (ATCC, Manassas, Va.). This cell line was maintained with an Roswell Park Memorial Institute (RPMI) medium (HyClone™) containing 10 bovine calf serum (BCS; Hyclone™) supplemented iron. The MV4-11 cells were seeded at 2×10^4 cells in 96-well culture plates, and serially diluted compound was then added. After a 72 hour incubation period at 37° C., cell viability was measured using the ATPLite 1 step assay (Perkin-Elmer™) that is based on the quantification of ATP from viable cells. CellTiter Aqueous assay (Promega™) was also performed in parallel as an orthogonal assay. IC50 values were calculated using nonlinear regression and defined as the concentration needed for a 50 reduction in luminescence or absorbance treated versus untreated control cells (Prism™ Software).

IC50: 3.2 nM
SMILES: CO[C@@H]1[C@H](N(C)C(=O)c2ccccc2)C[C@H]2O[C@]1(C)n1c3ccccc3c3c4c(c5c6ccccc6n2c5c31)C(=O)NC4 [PKC-412, Midostaurin, reference compound]
